{
  "source": "patent US12187696B2",
  "about": "“Urea motif containing compounds and derivatives thereof as antibacterial drugs” (Technische Universität München, priority 2016, dated 2025)",
  "test_system": "MRSA ATCC 33591",
  "assay": "Neutropenic murine thigh model",
  "type": "in vivo, S. aureus",
  "conditions": "levofloxacin 5 mg/kg at 2, 6 and 10 h after inoculation; positive control",
  "method": "PK/X17-1-150 (20 mg/kg) and the corresponding vehicle were administered orally after 30 min, 4 and 8 h after bacterial inoculation, whereas levofloxacin (5 mg/kg) and the corresponding vehicle were administered intraperitoneally after 2, 6 and 10 h after bacterial inoculation. N=6 for vehicle i.p., levofloxacin i.p. and for PK/X17-1-150; n=5 for vehicle p.o. Data are expressed as mean values±SD. **, p<0.01; ***, p<0.001.",
  "note": "At least one structure is not confirmed: it was looked up by name or label, or the drawing left a doubt.",
  "data": [
    {"smiles": "C[C@H]1COc2c(N3CCN(C)CC3)c(F)cc3c(=O)c(C(=O)O)cn1c23", "note": "[levofloxacin, reference compound]", "values": [
      {"measurement": "thigh bacterial load reduction (in words)", "result": "same range of reduction"}
    ]}
  ]
}
